PubChem BioAssay AID1159596, NIAID, 2016
In all, the deposit lists 756 reagents; below is a random part of them. 143 of them (19%) were called active. 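Active means the reporter moved past about ±1.5 in either direction; scores are per single siRNA, not per gene; peptidoglycan dose not given.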 The numbers tell different reagents against one gene apart. No sequences are given here. The record does not give: the amount of reagent.

Test: 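Knock-down of 126 toll-like receptor signalling parts, six siRNAs each, on a TNF reporter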 (primary screen)
System: human THP1 B5 monocytic reporter cells made macrophage-like with PMA
Knock-down reagent: single siRNA against human genes
Time to read-out: assayed 48 to 72 hours after siRNA transfection; peptidoglycan stimulation lasted 4 hours
Conditions: Staphylococcus aureus peptidoglycan for 4 hours; dose not given
Read-out: 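TNF-alpha promoter firefly/renilla luciferase ratio after 4 h s. aureus peptidoglycan; plate median/MAD scaled, robust z versus negative control wells, mean of replicates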
Reading the numbers: TNF reporter z-score: higher = stronger TNF promoter reporter response to peptidoglycan
Call rule: In these data the active calls have TNF reporter z-score, replicate mean at about -1.5 or lower, or at about 1.5 or higher
Meaning of the calls: active = reporter shifted beyond cut (either direction); inactive = reporter near control level

| Gene | reagent | TNF reporter z-score, replicate mean | outcome |
| --- | --- | --- | --- |
| IL1B (GeneID 3553) | 1 | -0.721 | inactive |
| IL1B (GeneID 3553) | 2 | -0.592 | inactive |
| IL1B (GeneID 3553) | 3 | 0.103 | inactive |
| IL1B (GeneID 3553) | 4 | -1.09 | inactive |
| IL1B (GeneID 3553) | 5 | -2.03 | active |
| IL1B (GeneID 3553) | 6 | -0.783 | inactive |
| JUN (GeneID 3725) | 1 | -3.23 | active |
| JUN (GeneID 3725) | 2 | -2.1 | active |
| JUN (GeneID 3725) | 3 | -0.525 | inactive |
| JUN (GeneID 3725) | 4 | -1.45 | inactive |
| JUN (GeneID 3725) | 5 | -0.669 | inactive |
| JUN (GeneID 3725) | 6 | 0.735 | inactive |
| TLR5 (GeneID 7100) | 1 | -0.431 | inactive |
| TLR5 (GeneID 7100) | 2 | 0.681 | inactive |
| TLR5 (GeneID 7100) | 3 | -0.7 | inactive |
| TLR5 (GeneID 7100) | 4 | -0.527 | inactive |
| TLR5 (GeneID 7100) | 5 | -0.872 | inactive |
| TLR5 (GeneID 7100) | 6 | -1.03 | inactive |
| PIK3CA (GeneID 5290) | 1 | 0.0605 | inactive |
| PIK3CA (GeneID 5290) | 2 | -0.512 | inactive |
| PIK3CA (GeneID 5290) | 3 | -2 | active |
| PIK3CA (GeneID 5290) | 4 | 0.39 | inactive |
| PIK3CA (GeneID 5290) | 5 | -1.05 | inactive |
| PIK3CA (GeneID 5290) | 6 | 0.936 | inactive |
| MAPKAPK2 (GeneID 9261) | 1 | -0.201 | inactive |
| MAPKAPK2 (GeneID 9261) | 2 | 0.612 | inactive |
| MAPKAPK2 (GeneID 9261) | 3 | -0.072 | inactive |
| MAPKAPK2 (GeneID 9261) | 4 | -0.677 | inactive |
| MAPKAPK2 (GeneID 9261) | 5 | 0.494 | inactive |
| MAPKAPK2 (GeneID 9261) | 6 | -0.764 | inactive |
| TLR7 (GeneID 51284) | 1 | -0.525 | inactive |
| TLR7 (GeneID 51284) | 2 | 1.56 | active |
| TLR7 (GeneID 51284) | 3 | -1.25 | inactive |
| TLR7 (GeneID 51284) | 4 | -0.858 | inactive |
| TLR7 (GeneID 51284) | 5 | -0.0173 | inactive |
| TLR7 (GeneID 51284) | 6 | 0.174 | inactive |
| PTPN6 (GeneID 5777) | 1 | -1.06 | inactive |
| PTPN6 (GeneID 5777) | 2 | 1.15 | inactive |
| PTPN6 (GeneID 5777) | 3 | -0.176 | inactive |
| PTPN6 (GeneID 5777) | 4 | -1.69 | active |
| PTPN6 (GeneID 5777) | 5 | -1.61 | active |
| PTPN6 (GeneID 5777) | 6 | -1.19 | inactive |
| TOLLIP (GeneID 54472) | 1 | -1.29 | inactive |
| TOLLIP (GeneID 54472) | 2 | -0.172 | inactive |
| TOLLIP (GeneID 54472) | 3 | 0.0437 | inactive |
| TOLLIP (GeneID 54472) | 4 | -5.43 | active |
| TOLLIP (GeneID 54472) | 5 | -0.418 | inactive |
| TOLLIP (GeneID 54472) | 6 | -1.18 | inactive |
| TNF (GeneID 7124) | 1 | -1.06 | inactive |
| TNF (GeneID 7124) | 2 | -0.804 | inactive |
| TNF (GeneID 7124) | 3 | -1.87 | active |
| TNF (GeneID 7124) | 4 | 0.0282 | inactive |
| TNF (GeneID 7124) | 5 | -1.25 | inactive |
| TNF (GeneID 7124) | 6 | -3.19 | active |
| TLR3 (GeneID 7098) | 1 | 0.272 | inactive |
| TLR3 (GeneID 7098) | 2 | -0.557 | inactive |
| TLR3 (GeneID 7098) | 3 | -0.567 | inactive |
| TLR3 (GeneID 7098) | 4 | -1.53 | active |
| TLR3 (GeneID 7098) | 5 | 0.0386 | inactive |
| TLR3 (GeneID 7098) | 6 | 0.217 | inactive |
| IKBKB (GeneID 3551) | 1 | 0.075 | inactive |
| IKBKB (GeneID 3551) | 2 | 0.13 | inactive |
| IKBKB (GeneID 3551) | 3 | 0.0633 | inactive |
| IKBKB (GeneID 3551) | 4 | -0.227 | inactive |
| IKBKB (GeneID 3551) | 5 | 0.298 | inactive |
| IKBKB (GeneID 3551) | 6 | 0.58 | inactive |
| MAP2K7 (GeneID 5609) | 1 | -1.19 | inactive |
| MAP2K7 (GeneID 5609) | 2 | -1.11 | inactive |
| MAP2K7 (GeneID 5609) | 3 | -1.11 | inactive |
| MAP2K7 (GeneID 5609) | 4 | -1.83 | active |
| MAP2K7 (GeneID 5609) | 5 | -1.78 | active |
| MAP2K7 (GeneID 5609) | 6 | -1.35 | inactive |
| CXCL11 (GeneID 6373) | 1 | -1.95 | active |
| CXCL11 (GeneID 6373) | 2 | 0.0069 | inactive |
| CXCL11 (GeneID 6373) | 3 | -0.112 | inactive |
| CXCL11 (GeneID 6373) | 4 | -0.297 | inactive |
| CXCL11 (GeneID 6373) | 5 | -0.524 | inactive |
| CXCL11 (GeneID 6373) | 6 | -0.648 | inactive |
| ATF2 (GeneID 1386) | 1 | -1.53 | active |
| ATF2 (GeneID 1386) | 2 | -0.169 | inactive |
| ATF2 (GeneID 1386) | 3 | -0.654 | inactive |
| ATF2 (GeneID 1386) | 4 | -0.269 | inactive |
| ATF2 (GeneID 1386) | 5 | -0.718 | inactive |
| ATF2 (GeneID 1386) | 6 | -2.32 | active |
| AKT3 (GeneID 10000) | 1 | -0.259 | inactive |
| AKT3 (GeneID 10000) | 2 | 0.117 | inactive |
| AKT3 (GeneID 10000) | 3 | 0.576 | inactive |
| AKT3 (GeneID 10000) | 4 | -0.0889 | inactive |
| AKT3 (GeneID 10000) | 5 | -0.328 | inactive |
| AKT3 (GeneID 10000) | 6 | 0.698 | inactive |
| AKT1 (GeneID 207) | 1 | -0.36 | inactive |
| AKT1 (GeneID 207) | 2 | 0.988 | inactive |
| AKT1 (GeneID 207) | 3 | -1.26 | inactive |
| AKT1 (GeneID 207) | 4 | -0.626 | inactive |
| AKT1 (GeneID 207) | 5 | 1.18 | inactive |
| AKT1 (GeneID 207) | 6 | -0.153 | inactive |
| TLR6 (GeneID 10333) | 1 | -1.53 | active |
| TLR6 (GeneID 10333) | 2 | 0.0592 | inactive |
| TLR6 (GeneID 10333) | 3 | -1.75 | active |
| TLR6 (GeneID 10333) | 4 | -1.56 | active |
| TLR6 (GeneID 10333) | 5 | -1.83 | active |
| TLR6 (GeneID 10333) | 6 | -1.39 | inactive |
| PIK3CD (GeneID 5293) | 1 | -1.61 | active |
| PIK3CD (GeneID 5293) | 2 | -0.318 | inactive |
| PIK3CD (GeneID 5293) | 3 | 0.389 | inactive |
| PIK3CD (GeneID 5293) | 4 | -1.39 | inactive |
| PIK3CD (GeneID 5293) | 5 | 0.967 | inactive |
| PIK3CD (GeneID 5293) | 6 | -0.0793 | inactive |
| MAP3K1 (GeneID 4214) | 1 | -0.936 | inactive |
| MAP3K1 (GeneID 4214) | 2 | -0.451 | inactive |
| MAP3K1 (GeneID 4214) | 3 | 0.252 | inactive |
| MAP3K1 (GeneID 4214) | 4 | -3.35 | active |
| MAP3K1 (GeneID 4214) | 5 | -0.289 | inactive |
| MAP3K1 (GeneID 4214) | 6 | -0.898 | inactive |

Reformatted: 10 of the entries above
PTPN6 (GeneID 5777) #1
- TNF reporter z-score, replicate mean: -1.06
- outcome: inactive

PTPN6 (GeneID 5777) #2
- TNF reporter z-score, replicate mean: 1.15
- outcome: inactive

PTPN6 (GeneID 5777) #3
- TNF reporter z-score, replicate mean: -0.176
- outcome: inactive

PTPN6 (GeneID 5777) #4
- TNF reporter z-score, replicate mean: -1.69
- outcome: active

PTPN6 (GeneID 5777) #5
- TNF reporter z-score, replicate mean: -1.61
- outcome: active

PTPN6 (GeneID 5777) #6
- TNF reporter z-score, replicate mean: -1.19
- outcome: inactive

TOLLIP (GeneID 54472) #1
- TNF reporter z-score, replicate mean: -1.29
- outcome: inactive

TOLLIP (GeneID 54472) #2
- TNF reporter z-score, replicate mean: -0.172
- outcome: inactive

TOLLIP (GeneID 54472) #3
- TNF reporter z-score, replicate mean: 0.0437
- outcome: inactive

TOLLIP (GeneID 54472) #4
- TNF reporter z-score, replicate mean: -5.43
- outcome: active
